The values below come from the odorant receptor screen of Mainland et al. (2015).

Where “and” joins values, the source holds several entries; their conditions need not be identical. Identical values can stand only once. This is one part of the list. Each value is one well over the wells without odorant, computed here; the data are noisy.

What all share (test): odorant receptor activation (CRE luciferase / Renilla) (fold of no-odor wells); higher = more activation
Common to all, as to conditions: 100 µM

For experiment [1], the system named is OR4K13 clone 1266.
The test system of experiment [2] is OR4K14 clone 1276.
For experiment [3], the system named is OR4K15 N65S/E88V/S93A/A231E/L280P/I286M clone 1566.
Experiment [4] concerns OR4K17 clone 1319.
Experiment [5] has as its system OR4K17 clone 1420.
The subject of experiment [6] is OR4K2 clone 1258.
For experiment [7], the system named is OR4K3 clone 1259.
In experiment [8] the test system is OR4K5 clone 1261.
The test system of experiment [9] is OR4L1 R52S clone 1265.
Experiment [10] deals with OR4M1 clone 1559.
In experiment [11] the test system is OR4M2 clone 1278.
In experiment [12] the test system is OR4N2 clone 1270.
For experiment [13], the system named is OR4N4 clone 1277.
The test system of experiment [14] is OR4N5 clone 1262.
Experiment [15] concerns OR4P4 R231C clone 1398.
The subject of experiment [16] is OR4P4 clone 1139.
Experiment [17] deals with OR4Q3 clone 1411.
For experiment [18], the system named is OR4S1 clone 1283.
Experiment [19] relates to OR4S2 clone 1175.
Experiment [20] has as its system OR4X2 clone 1193.

Regarding `COc1cc(C)ccc1O` [2-methoxy-4-methylphenol], the odorant receptor activation in experiment [1] turned out to be 0.971; in experiment [2], 0.825; in experiment [3], 0.95; in [4] it was 0.984; in experiment [5], 0.933; in [6], 1.11. Also, the odorant receptor activation in experiment [7] is 0.765; in experiment [8] it was 1.18; in [9], 0.906; in experiment [10] it was 1.05; in experiment [11] it was 0.972; in [12], 0.589. Besides, the odorant receptor activation turned out to be 0.835 in [13]; 0.748 in experiment [14]; 1.15 in experiment [15]; 0.849 in experiment [16]; 1.02 in experiment [17]; 1.03 in [18]. Further, the odorant receptor activation in experiment [19] worked out at 1.3; in experiment [20], 1.33.
As to `CCCCCCCOC(C)=O` [heptyl acetate], the odorant receptor activation in experiment [1] is 0.918 and 0.957; in experiment [2], 1.12 and 0.836; in experiment [3], 0.752; in experiment [4], 0.519 and 0.96; in experiment [5], 0.935; in [6] it was 0.944 and 1.24. Besides, the odorant receptor activation in [7] was 1.4 and 1.22; in experiment [8] it was 1.29 and 1.43; in experiment [9] it was 0.964 and 1.02; in experiment [10] it was 0.683; in [11] it was 0.937 and 1.11; in experiment [12], 1.04 and 0.987. Further, the odorant receptor activation in experiment [13] is 1.12 and 0.99; in experiment [14] it was 1.02 and 0.966; in experiment [15], 0.672; in [16], 0.714; in experiment [17] it was 0.924; in [18], 0.796 and 1.37. In addition, the odorant receptor activation was found to be 0.68 in experiment [19] and 0.694 in experiment [20].
On to `CC(C)C(=O)O` [isobutyric acid], for which the odorant receptor activation in [1] is 1.03 and 1.08; in [2], 1.55 and 0.978; in [3], 0.814; in experiment [4], 0.997 and 0.828; in experiment [5], 0.892; in experiment [6], 0.932 and 1.34. For the same compound, the odorant receptor activation in [7] is 1.07 and 0.808; in experiment [8], 1.19 and 0.887; in [9], 1.05 and 1.07; in experiment [10], 0.993; in experiment [11] it was 1.15 and 0.653; in experiment [12] it was 0.942 and 1.02. The odorant receptor activation in experiment [13] was 0.939 and 0.706; in experiment [14], 1.03 and 0.825; in experiment [15], 0.623; in [16], 0.683; in experiment [17], 0.736; in [18], 0.94 and 0.693. In addition, the figures for the odorant receptor activation in experiment [19] and in [20] were 0.903 and 0.958, respectively.
Regarding `CC/C=C\CCO` [cis-3-hexen-1-ol], the odorant receptor activation in experiment [1] turned out to be 0.868; in [2], 0.765; in experiment [3], 1.13; in experiment [4], 0.976; in [5], 0.232; in [6], 0.884. Also, the odorant receptor activation in [7] is 1.12; in experiment [8], 1.14; in experiment [9] it was 0.83; in experiment [10] it was 1.15; in [11], 1.02; in experiment [12], 0.928. Further, the odorant receptor activation in experiment [13] stood at 1.01; in experiment [14], 1.01; in [15] it was 0.222; in experiment [16] it was 1.15; in [17], 0.282; in experiment [18] it was 0.71. Also, the values for the odorant receptor activation in experiment [19] and in experiment [20] were 0.913 and 1.05, respectively.
In the case of `CCCCCCCC=O` [octyl aldehyde], the odorant receptor activation in experiment [1] was found to be 1.03; in [2] it was 1.11; in experiment [3], 0.932; in experiment [4], 0.983; in experiment [5] it was 0.768; in experiment [6] it was 0.965. Moreover, the odorant receptor activation in [7] is 1.07; in [8], 1.1; in [9] it was 1.2; in [10] it was 0.85; in [11], 1.23; in experiment [12], 0.881. The odorant receptor activation turned out to be 1.18 in [13]; 1.08 in experiment [14]; 0.832 in experiment [15]; 1.06 in experiment [16]; 0.747 in experiment [17]; 1.13 in experiment [18]. In addition, the results for the odorant receptor activation in experiment [19] and in experiment [20] were 0.991 and 1.47, respectively.
As for `CC(C)=CCCC(C)=CC=O` [citral], the odorant receptor activation in experiment [1] is 1.06; in experiment [2], 1.07; in experiment [3], 1.23; in experiment [4] it was 0.945; in [5], 0.24; in experiment [6], 1.27. Moreover, the odorant receptor activation in experiment [7] was 1.29; in experiment [8], 1.34; in experiment [9], 0.893; in [10], 1.08; in experiment [11], 1.54; in experiment [12], 1.07. The odorant receptor activation was found to be 1.2 in experiment [13]; 1.08 in experiment [14]; 0.285 in experiment [15]; 1.03 in experiment [16]; 0.272 in experiment [17]; 0.99 in [18]. For the same compound, the odorant receptor activation in experiment [19] and in [20] was 1.19 in each case.
Regarding `CCCCCC(=O)O` [caproic acid], the odorant receptor activation turned out to be 0.857 in experiment [1]; 0.919 in [2]; 0.841 in experiment [3]; 0.819 in [4]; 0.216 in [5]; 0.84 in experiment [6]. The odorant receptor activation in experiment [7] came to 0.756; in experiment [8], 1.03; in [9] it was 0.962; in experiment [10] it was 1.03; in experiment [11], 0.82; in [12], 0.772. Further, the odorant receptor activation came out at 0.916 in experiment [13]; 0.893 in experiment [14]; 0.222 in experiment [15]; 1.16 in [16]; 0.287 in experiment [17]; 0.747 in experiment [18]. Further, the odorant receptor activation in experiment [19] was 1.09; in [20], 1.11.
